PubChem BioAssay AID743121 | NCATS, 2013

Purpose: 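Partners whose loss is lethal together with topoisomerase I blockade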 (primary screen)
System: MDA-MB-231 cells, a human breast cancer line
Reagents: single siRNA against human genes, 20 nM siRNA (0.8 pmol per well)
Time to read-out: 120 h (drug added 48 h after transfection, read 72 h later)
Conditions: camptothecin 20 nM (about EC30) for 72 h; vehicle 0.1% DMSO in parallel plates
Read-out: 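Cell viability by ATP luminescence (CellTiter-Glo) as % of non-targeting siRNA wells, and the log2 ratio of viability without drug over viability with camptothecin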
Direction: log2 vehicle/camptothecin viability: higher = stronger sensitisation to camptothecin; viability with camptothecin: higher = more viable cells
Hit rule: 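Each gene scored by redundant siRNA activity (RSA) over its individual siRNA ratios; a gene is called active at p < 0.001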
The whole screen tested about 26,000 reagents; shown is an unselected part. In the full data, 167 (0.63%) are marked active. 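Calls are per gene from RSA p-values that are not deposited; an individual active-marked siRNA can sensitise only weakly.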 Reagents against one gene are numbered here. Further read-outs or replicates are left out here. No sequences are given here.

Gene | reagent | log2 vehicle/camptothecin viability | viability with camptothecin (% of control) | Outcome
DHCR24 (24-dehydrocholesterol reductase) | 1 | -0.26 | 131 | inactive
DHCR24 (24-dehydrocholesterol reductase) | 2 | 0.164 | 93.8 | inactive
DHCR24 (24-dehydrocholesterol reductase) | 3 | 0.0608 | 109 | inactive
DHCR24 (24-dehydrocholesterol reductase) | 4 | 0.185 | 84.9 | inactive
PKD2L2 | 1 | -0.0246 | 65.8 | inactive
PKD2L2 | 2 | -0.231 | 78.5 | inactive
PKD2L2 | 3 | 0.00954 | 57.5 | inactive
PKD2L2 | 4 | -0.254 | 54.2 | inactive
USP7 (ubiquitin specific peptidase 7) | 1 | -0.0246 | 80.5 | inactive
USP7 (ubiquitin specific peptidase 7) | 2 | -0.11 | 74.3 | inactive
USP7 (ubiquitin specific peptidase 7) | 3 | 0.264 | 57 | inactive
USP7 (ubiquitin specific peptidase 7) | 4 | -0.144 | 94.5 | inactive
ARNT (aryl hydrocarbon receptor nuclear translocator) | 1 | 0.133 | 35.7 | inactive
ARNT (aryl hydrocarbon receptor nuclear translocator) | 2 | -0.421 | 35 | inactive
ARNT (aryl hydrocarbon receptor nuclear translocator) | 3 | -0.461 | 94.8 | inactive
ARNT (aryl hydrocarbon receptor nuclear translocator) | 4 | -0.109 | 125 | inactive
METTL8 (methyltransferase 8, tRNA N3-cytidine) | 1 | -0.241 | 77.3 | inactive
METTL8 (methyltransferase 8, tRNA N3-cytidine) | 2 | 0.382 | 53.9 | inactive
METTL8 (methyltransferase 8, tRNA N3-cytidine) | 3 | 1.04 | 37.6 | inactive
PPM1G (protein phosphatase, Mg2+/Mn2+ dependent 1G) | 1 | -0.432 | 56.5 | inactive
PPM1G (protein phosphatase, Mg2+/Mn2+ dependent 1G) | 2 | -0.873 | 38.7 | inactive
PPM1G (protein phosphatase, Mg2+/Mn2+ dependent 1G) | 3 | -0.048 | 69.2 | inactive
PPM1G (protein phosphatase, Mg2+/Mn2+ dependent 1G) | 4 | 0.228 | 74.3 | inactive
CD244 (CD244 molecule) | 1 | -0.544 | 14.6 | inactive
CD244 (CD244 molecule) | 2 | 0.32 | 41.4 | inactive
CD244 (CD244 molecule) | 3 | -0.467 | 122 | inactive
NAALADL1 (N-acetylated alpha-linked acidic dipeptidase like 1) | 1 | -0.348 | 41.7 | inactive
NAALADL1 (N-acetylated alpha-linked acidic dipeptidase like 1) | 2 | -0.57 | 72.5 | inactive
NAALADL1 (N-acetylated alpha-linked acidic dipeptidase like 1) | 3 | -0.24 | 74.4 | inactive
NAALADL1 (N-acetylated alpha-linked acidic dipeptidase like 1) | 4 | -0.281 | 129 | inactive

Laid out differently: results already given.
ARNT (aryl hydrocarbon receptor nuclear translocator) #3 → log2 vehicle/camptothecin viability: -0.461; viability with camptothecin (% of control): 94.8; Outcome: inactive
ARNT (aryl hydrocarbon receptor nuclear translocator) #4 → log2 vehicle/camptothecin viability: -0.109; viability with camptothecin (% of control): 125; Outcome: inactive
METTL8 (methyltransferase 8, tRNA N3-cytidine) #1 → log2 vehicle/camptothecin viability: -0.241; viability with camptothecin (% of control): 77.3; Outcome: inactive
METTL8 (methyltransferase 8, tRNA N3-cytidine) #2 → log2 vehicle/camptothecin viability: 0.382; viability with camptothecin (% of control): 53.9; Outcome: inactive
METTL8 (methyltransferase 8, tRNA N3-cytidine) #3 → log2 vehicle/camptothecin viability: 1.04; viability with camptothecin (% of control): 37.6; Outcome: inactive
PPM1G (protein phosphatase, Mg2+/Mn2+ dependent 1G) #1 → log2 vehicle/camptothecin viability: -0.432; viability with camptothecin (% of control): 56.5; Outcome: inactive
PPM1G (protein phosphatase, Mg2+/Mn2+ dependent 1G) #2 → log2 vehicle/camptothecin viability: -0.873; viability with camptothecin (% of control): 38.7; Outcome: inactive
PPM1G (protein phosphatase, Mg2+/Mn2+ dependent 1G) #3 → log2 vehicle/camptothecin viability: -0.048; viability with camptothecin (% of control): 69.2; Outcome: inactive
PPM1G (protein phosphatase, Mg2+/Mn2+ dependent 1G) #4 → log2 vehicle/camptothecin viability: 0.228; viability with camptothecin (% of control): 74.3; Outcome: inactive
CD244 (CD244 molecule) #1 → log2 vehicle/camptothecin viability: -0.544; viability with camptothecin (% of control): 14.6; Outcome: inactive

The list goes on:
Gene | reagent | log2 vehicle/camptothecin viability | viability with camptothecin (% of control) | Outcome
DHX57 (DExH-box helicase 57) | 1 | 0.183 | 77.4 | inactive
DHX57 (DExH-box helicase 57) | 2 | -0.0708 | 109 | inactive
DHX57 (DExH-box helicase 57) | 3 | -0.667 | 90.2 | inactive
DHX57 (DExH-box helicase 57) | 4 | -0.349 | 90.6 | inactive
CHM (CHM Rab escort protein) | 1 | 0.603 | 44.1 | inactive
CHM (CHM Rab escort protein) | 2 | 0.032 | 104 | inactive
CHM (CHM Rab escort protein) | 3 | 0.79 | 28.8 | inactive
CHM (CHM Rab escort protein) | 4 | -0.426 | 88.5 | inactive
CA7 (carbonic anhydrase 7) | 1 | 0.0163 | 69.6 | inactive
CA7 (carbonic anhydrase 7) | 2 | 0.483 | 7.92 | inactive
CA7 (carbonic anhydrase 7) | 3 | 0.14 | 67.9 | inactive
CA7 (carbonic anhydrase 7) | 4 | -0.274 | 69 | inactive
CRH (corticotropin releasing hormone) | 1 | 0.183 | 90.7 | inactive
CRH (corticotropin releasing hormone) | 2 | -0.153 | 60.5 | inactive
CRH (corticotropin releasing hormone) | 3 | 0.204 | 74.3 | inactive
CRH (corticotropin releasing hormone) | 4 | -0.163 | 63.2 | inactive
XPO1 (exportin 1) | 1 | -0.0121 | 83.5 | inactive
XPO1 (exportin 1) | 2 | 0.901 | 11.3 | inactive
XPO1 (exportin 1) | 3 | -0.308 | 39.9 | inactive
PDCD1 (programmed cell death 1) | 1 | 0.264 | 49 | inactive
PDCD1 (programmed cell death 1) | 2 | 0.275 | 62.7 | inactive
PDCD1 (programmed cell death 1) | 3 | -0.106 | 104 | inactive
PDCD1 (programmed cell death 1) | 4 | -0.671 | 66.4 | inactive
SLC19A2 | 1 | -0.0491 | 102 | inactive
SLC19A2 | 2 | 0.0449 | 90.7 | inactive
SLC19A2 | 3 | 0.00786 | 106 | inactive
GRIN3B (glutamate ionotropic receptor NMDA type subunit 3B) | 1 | -0.00708 | 31.5 | inactive
GRIN3B (glutamate ionotropic receptor NMDA type subunit 3B) | 2 | -0.0527 | 93.3 | inactive
GRIN3B (glutamate ionotropic receptor NMDA type subunit 3B) | 3 | -0.32 | 115 | inactive
GRIN3B (glutamate ionotropic receptor NMDA type subunit 3B) | 4 | 0.317 | 69.6 | inactive
FAM219B (family with sequence similarity 219 member B) | 1 | 0.0236 | 66.2 | inactive
FAM219B (family with sequence similarity 219 member B) | 2 | 0.295 | 77.5 | inactive
FAM219B (family with sequence similarity 219 member B) | 3 | 0.0592 | 62.5 | inactive
PTPRT (protein tyrosine phosphatase receptor type T) | 1 | -0.448 | 104 | inactive
PTPRT (protein tyrosine phosphatase receptor type T) | 2 | -0.12 | 54.8 | inactive
PTPRT (protein tyrosine phosphatase receptor type T) | 3 | 1.17 | 18.5 | inactive
PTPRT (protein tyrosine phosphatase receptor type T) | 4 | -0.107 | 75 | inactive
TREX1 (three prime repair exonuclease 1) | 1 | 0.284 | 64.8 | inactive
TREX1 (three prime repair exonuclease 1) | 2 | -0.073 | 66.1 | inactive
TREX1 (three prime repair exonuclease 1) | 3 | 0.103 | 92.4 | inactive
